Some of the results follow. For some of these results: The exact form of the protein is not confirmed.
Columns and labels:
Experiment in all cases: protein microarray (ProtoArray v5.0), streptavidin-Alexa Fluor 647
Conditions in all cases: 3'-biotin; 20 mM Tris (pH 7.5), 5 mM MgCl2, 100 mM KCl, 0.1% Tween-20, A/T-rich and random oligonucleotide blockers; temperature not stated; high values mean tight binding
RWDD2B = RWDD2B (UniProt P57060)
[1] = system: Rab9 effector protein with Kelch motifs (human)
[2] = system: Rap1 GTPase-GDP dissociation stimulator 1 (human)
[3] = system: Ras-related protein Rab-39B (human)
[4] = system: Ras-related protein Rab-3D (human)
[5] = system: Ras-related protein Rab-9B (human)
[6] = system: Receptor expression-enhancing protein 1 (human)
[7] = system: Receptor expression-enhancing protein 5 (human)
[8] = system: Regenerating islet-derived protein 3 gamma (human)
[9] = system: Regulator of G-protein signaling 3 (human)

Amino acid sequences for entries named in this document (tags omitted). A change or cut given only in a name is not applied to a line headed by its entry.
UniProt P57060: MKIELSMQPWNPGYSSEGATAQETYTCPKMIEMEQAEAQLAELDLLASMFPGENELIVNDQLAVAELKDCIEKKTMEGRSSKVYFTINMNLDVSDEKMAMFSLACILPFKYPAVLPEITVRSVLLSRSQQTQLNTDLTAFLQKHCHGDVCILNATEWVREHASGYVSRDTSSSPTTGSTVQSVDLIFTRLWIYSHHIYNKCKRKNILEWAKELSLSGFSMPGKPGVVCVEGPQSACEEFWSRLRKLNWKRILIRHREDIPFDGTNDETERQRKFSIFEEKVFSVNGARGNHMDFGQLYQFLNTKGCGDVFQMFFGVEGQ

GGTGACAGGGGTATGGGGAGGGG [G4-2 biotinylated (Ct1)]
binding signal (RWDD2B): 6.09 z-score | binding signal [1]: -0.378 z-score | binding signal [2]: -0.382 z-score | binding signal [3]: -0.398 z-score | binding signal [4]: -0.39 z-score | binding signal [5]: -0.398 z-score | binding signal [6]: -0.38 z-score | binding signal [7]: -0.399 z-score | binding signal [8]: -0.401 z-score | binding signal [9]: 5.68 z-score

From paper PMC5996148
